Source: publication PMC3520743, “Bacillus cereus Fnr binds a [4Fe-4S] cluster and forms a ternary complex with ResD and PlcR” (BMC Microbiology, 2012)
For at least one entry, the source does not settle the construct or the ends of the probe.

Biological target: holoFnr (Bacillus cereus F4430/73) (UniProt A4GFD9)
Assay: EMSA
Conditions: anoxic, [4Fe-4S]2+, higher affinity than apoFnr; anaerobic EMSA: 10 mM Tris-HCl pH 7.5, 50 mM KCl, 1 mM DTT, 2.5% glycerol, 5 mM MgCl2, 5 mg/L poly(dI-dC), 2 nM DNA, 0.2-0.8 uM Fnr, 30 min at 37 C; recombinant protein; residues 5-230; label: 5'-biotin; probe letters rebuilt from the primers and the genome

## CGAACACTTCAGCAGGCATACAGTATGTACACCTAAAATTACAACGATCAATAACTGAAATACGTAAATCTTGAAGTGGCCGCTTTAAAGAATCTTTTATGTTCTTGTGCATCTCTATCCCTTCTTTTCTGCTGCAATCCTTAGTAAGCTTTCATTTTTTTATTTGCCTTTATTATAAAAAAGAAGCTACATATTCAATGTGACTTTTCTCACATCACTTTCCCCATTCAAAAACTTTTCACAAATCCGTTCGTATTTTGTTCACATCTTCAGGCCATACTCTTTACGGTCATTGAAATTTTACATTATTTTTAAAATAGCTCTTGCATTTTCATCATATTTACACTCAAAATAGGAAATGTATTGCTTATAAGAAGAAAGGTGATTGCTGTGGCAAACAGTATGACATT (double strand) [fnr promoter region]
  binding result: binds
